# Values joined by “and” are separate entries in the source; they are usually repeats but may differ in a detail not shown here. Equal entries are not always repeated. Inconclusive results, whose numbers are uncertain, are shown with a selection of clear calls. Active and inactive are the calls of the source.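 How the source made its calls: active means compounds raising survival of Huntington mutant striatal cells while barely changing normal control cells; inconclusive means compounds that make cell death worse; inactive means the rest.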
# Experiment: qHTS Multiplex Assay to Identify Dual Action Probes in a Cell Model of Huntington: Cytotoxicity in HTT Striatal Cells
# Settings: STHdhQ111/111 striatal cells, serum-free, ATP luminescence, 24 h; at 30 µM
# From the text: NIH Chemical Genomics Center [NCGC] NIH Molecular Libraries Probe Production centers Network [MLPCN] MLPCN Grant: MH084839-01A1 Assay Submitter (PI): Wei Zheng NCGC Assay Overview: Huntington's disease is a neurodegenerative disorder caused by a trinucleotide repeat expansion in Exon 1 of the Huntingtin gene. The CAG trinucleotide encodes glutamine and polyglutamine expansions cause cell death in selective areas of the brain. Huntington polyglutamine repeats have the tendency to form aggregates which are observable in later stages of the disease. The exact nature of the aggregates, whether toxic, protective, or insignificant, is unclear. A stable PC12 cell line containing a gene fusion of Exon 1 of the Huntingtin gene linked to GFP under the control of the inducible ecdysone promoter were used as the cell-based model of Huntington Disease for high throughput screening. Exon 1 of the Huntingtin gene contained an expansion of 103 polyglutamines (Q103) which, when expressed, caused cell death and distinct, bright GFP aggregates. The amount of cell death and the size and intensity of GFP aggregates increased over time and induction level. The cell death were quantified with a measurement of ATP content in the cells. A maximal 40-50% of cell death was observed when the Huntington gene was induced in this cell line. We optimized this assay in a homogeneous 1536 well format. A quantitative high throughput screen (qHTS) was conducted on the PC12 cells which were induced to express the toxic fusion construct. Small molecules which prevented cell death were identified by using a luminescent ATP quantification method (Perkin Elmer's ATPlite). This assay examines influence on cytotoxicity induced by serum deprivation in normal and Huntington striatal cells.
# Freshlay passaged STHdhQ7/7 cells and mutant STHdhQ111/111 Huntington striatal cells were plated at a density of 20,000 cells/well in complete media and allowed to recover overnight at 33C. The next day, media was replaced with serum containing media or serum free media containing the compound. After 24 hours of incubation at 33 C, cells were assayed for ATP content using the Cell Titer-GLO ATP assay from Promega (cat # G7571). ATP/Toxicity Assay in Serum Free Media (SFM) (96 well plate format) 1. Plate 20,000 cells/well and incubate the cells in complete (w/serum) media overnight 2. Remove media, wash twice with PBS and add the SFM w/ or w/o the compound 3. Incubate at 33C; cells can be incubated at 39C for a more dramatic effect 4. ATP measurements after […] treatment, per kit protocol
row,SMILES,viability change
1,Cc1ccc(-c2csc3ncnc(Sc4nnnn4C)c23)cc1,inconclusive: -97% [cytotoxic]
2,Cn1nnnc1Sc1ncnc2scc(-c3ccccc3)c12,active: 231% and active: 240%
3,Cn1nnnc1Sc1ncnc2scc(-c3ccc(Cl)cc3)c12,inconclusive: -99% [cytotoxic]
4,Cn1nnnc1Sc1ncnc2scc(-c3ccc(F)cc3)c12,inconclusive: -63% [cytotoxic]

# From PubChem BioAssay AID2713 (National Center for Advancing Translational Sciences (NCATS), 2010)
